Test results as given in the supplement of paper PMC3334620.
Whole data set: some 33,000 sequences, median “E-score (-0.5 to 0.5)” near -0.016, cut for the highest 2% near 0.3. This is one part of the list.

Target: T1, Yer184c (UniProt P39961)
T1 sequence: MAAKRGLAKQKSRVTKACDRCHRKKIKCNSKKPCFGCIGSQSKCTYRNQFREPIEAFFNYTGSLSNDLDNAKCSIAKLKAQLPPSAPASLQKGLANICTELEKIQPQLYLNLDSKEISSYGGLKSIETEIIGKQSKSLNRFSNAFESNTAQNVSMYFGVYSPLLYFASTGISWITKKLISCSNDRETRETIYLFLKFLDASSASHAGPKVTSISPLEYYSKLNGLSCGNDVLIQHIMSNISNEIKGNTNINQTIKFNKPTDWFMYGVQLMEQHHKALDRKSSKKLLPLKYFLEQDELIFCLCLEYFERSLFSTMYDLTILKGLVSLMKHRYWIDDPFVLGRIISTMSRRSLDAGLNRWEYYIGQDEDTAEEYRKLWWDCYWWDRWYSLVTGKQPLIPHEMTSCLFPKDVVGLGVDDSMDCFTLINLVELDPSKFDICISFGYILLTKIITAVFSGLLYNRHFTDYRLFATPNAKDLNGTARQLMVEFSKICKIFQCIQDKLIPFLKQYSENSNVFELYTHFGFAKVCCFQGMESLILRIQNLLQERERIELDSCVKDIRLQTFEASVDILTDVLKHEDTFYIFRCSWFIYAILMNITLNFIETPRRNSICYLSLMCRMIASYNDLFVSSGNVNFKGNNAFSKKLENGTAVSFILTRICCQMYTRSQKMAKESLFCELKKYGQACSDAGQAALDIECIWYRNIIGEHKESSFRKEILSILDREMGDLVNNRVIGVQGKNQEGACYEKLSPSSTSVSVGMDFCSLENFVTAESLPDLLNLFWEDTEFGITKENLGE
Assay: PBM E-score (8-mer binding enrichment) (E-score (-0.5 to 0.5)); higher = stronger / more preferred TF binding
Conditions: protein concentration: 100 nM; construct: GST-full length
In short: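 E-scores (a modified Wilcoxon-Mann-Whitney statistic) were assigned by the Universal PBM Analysis Suite to every ungapped eight-base word pooled with its reverse complement. The input came from universal all-10-mer Agilent arrays made double-stranded by primer extension and probed with GST-tagged yeast transcription factors at about 100-200 nM. Fluorescent anti-GST detected bound protein, and masliner normalised the scans.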

Sequence | PBM E-score
CGACTCGC | -0.0662
GATTAGTA | 0.13
AAGATATT | 0.0795
GTATGTTA | 0.149
GTACCGTA | -0.0052
CTCTATCA | -0.183
GATTGGGC | -0.00977
GGAAAACA | 0.215
CAAACGTA | -0.0672
ACTGACCT | -0.102
AGGCTACC | -0.152
ATGTTTTG | 0.153
CAGTACGG | 0.0218
GCGTCAGC | -0.202
GCTTGCCC | -0.297
CGCTATAC | -0.232
GTCTCAGA | -0.128
CGATAAAC | -0.0667
AGGACAAA | 0.136
GCGCGATA | 0.109
TGCAGAAA | 0.155
GACCCTGA | -0.196
AAACCGCA | -0.059
CATCTATC | 0.0619
AGTAGGTG | -0.174

Sequence | PBM E-score
TCGGGACA | 0.0247
CCCGGTTC | 0.184
CACGTTCA | -0.0938
AAATTGCA | 0.117
ATTGAGTC | -0.0225
GTCTACGA | -0.2
AGTTGTCC | 0.0454
CGGAACGA | 0.306
GTCTAACA | -0.132
AGCTCCCC | -0.346
ACATATGT | -0.108
CGATCTGA | 0.0411
ACAGCGGC | -0.0827
ACGGTGTC | -0.0501
GACCGCTC | -0.153
CTCTCCAG | -0.398
AAACCCGT | -0.16
CCGGCTTA | 0.33
GATTCAGA | 0.0809
CCCTACAG | -0.327
ATCTTCAC | 0.111
ACGCTTCA | -0.278
CTATCAAC | 0.205
GCTTCCCA | -0.102
TTAATGAA | 0.23

Laid out differently: entries from further up
Sequence	PBM E-score
GTCTAACA	-0.132
AGCTCCCC	-0.346
ACATATGT	-0.108
CGATCTGA	0.0411
ACAGCGGC	-0.0827
ACGGTGTC	-0.0501
GACCGCTC	-0.153

Following part.

Sequence | PBM E-score
CTATGCTA | 0.0813
AAAGCTTC | 0.108
ATATCGAT | 0.045
ATGTTGAC | -0.0122
CAGGGGGA | -0.42
GAGTCTAC | -0.121
CCTTGCGC | -0.193
CCTACACG | -0.269
CCAAAGGG | -0.126
ACAGCAGA | 0.0464
GGACATCC | -0.13
CAACTCTC | -0.0693
CCAATCCC | -0.136
AAGTTAAC | 0.147
ACTATCTC | 0.0285
CGTATGTC | -0.0388
CAGTGCAA | 0.0537
GTTTCTAA | 0.177
TACACCCA | -0.0433
CAAATTTG | 0.167
GTTTACTA | 0.0747
GGCGTTTA | -0.0315
ATAAATTA | 0.316
CACCATAC | -0.114
GTTGACGA | -0.00808

Sequence | PBM E-score
ACCAGTCA | -0.0658
ACTGTACT | -0.276
ATAATAGG | 0.146
ATCATGTC | 0.067
CTCTATTA | -0.154
CAGAGGGG | -0.286
AAGGCTAG | -0.11
CGTTGGCC | 0.0758
ACCCTGTA | -0.103
CTATTTTA | 0.111
ATCGTTAA | 0.0348
CCAACAAG | -0.118
CCTGGTAC | -0.0559
AGTGGTCC | -0.0143
GTAATGTA | -0.154
CGTTACAG | -0.0144
GTTACACA | -0.0438
AGGGTTCA | -0.0808
AAGCACTC | -0.0537
GCGGAGCA | 0.0321
ACATCTTA | -0.0687
AATTTCAC | 0.0995
ACTCGTCT | 0.126
CGCATAGC | -0.222
ACGAAGAT | 0.119

Sequence | PBM E-score
ACACTGTC | -0.088
CCCACGAC | -0.199
TCGGGGAA | 0.088
CGGGTTAG | -0.175
CCAACTCC | 0.0474
AATTGAGC | -0.111
GAGTGAGC | -0.0659
CGAGGGAA | -0.041
CTATTGGC | -0.232
GGGAACAA | 0.158
AAGGTCAG | -0.139
AGTCCGCG | 0.0709
ATAGTGTA | 0.0783
GGGATACC | -0.156
CACAAGAA | 0.202
AAGCAAAC | 0.0902
AAGCTTCT | -0.0165
AGTTTTCA | 0.114
AGGATGGG | -0.248
ACGCGAGT | -0.0923
CATAGCAG | -0.293
GGTCGACA | -0.0692
AGATATAG | 0.0793
AGGTCTAG | -0.209
GATACCAC | 0.103

Sequence | PBM E-score
ACGAGCTC | 0.117
TGTCTGAA | 0.00762
ACCATTCC | 0.0171
ACGGACAG | 0.0127
GAGCCGGA | 0.328
AGCAAGGG | -0.0678
AAAGAACG | 0.0238
CTTTGTAA | 0.234
AACGTACC | -0.102
AGTAACCG | 0.117
CGTTGGAA | 0.0607
AACATTGC | -0.138
CCTCCCCA | -0.218
AACTCAGC | -0.0339
CGTAGGGA | -0.174
CAATGAAA | -0.0299
GGGATTAC | -0.128
GTCATCCA | -0.0903
ATTCGGCC | 0.292
TATGCATA | 0.0271
CTCAGAGA | -0.115
TGGTTAAA | 0.114
ACTTTCCA | -0.0203
CATTTAGA | 0.0616
CGCACATC | -0.149

Looked up one by one from the list above:
Sequence | PBM E-score
CGTTGGAA | 0.0607
CGCACATC | -0.149
AAAGAACG | 0.0238
CATTTAGA | 0.0616
GAGCCGGA | 0.328
CTCAGAGA | -0.115

Going on with the list:

Sequence | PBM E-score
CTCTCGTC | -0.101
AATGGCCG | 0.0612
ATATCGTG | 0.0974
AAGGAACA | 0.0625
GAAGTGCC | -0.00228
ACAGAGGG | -0.217
ATTGTATC | 0.154
ATCAACCG | 0.132
CCCCAGGC | -0.218
CTCACGGA | 0.152
ATTGGGAC | -0.0118
ACACTGCC | 0.144
GTGAATAA | 0.00485
ATGCTTTG | 0.233
AGGACCCT | -0.055
AGACACAA | 0.215
CGTAAAAA | 0.0901
ATAATTAT | 0.386
CCTCTACC | -0.163
ATAAATGC | 0.0918
CTTGTGCC | -0.161
ACCTTTCT | -0.0725
AATCAGGC | 0.00448
GTTAAAGA | 0.114
GATTGAGC | 0.109

Sequence | PBM E-score
ACCCTCCT | -0.184
CAGTAGCA | -0.0779
ATGGCGAG | -0.161
CAGCCGTA | 0.142
ACGTACGA | -0.299
AGTATGGA | 0.11
AGCCCGTG | -0.14
CACGATGA | 0.00195
GGGCCGGA | 0.244
GGTGCAAA | 0.0127
ATACCAGA | -0.0381
ACCAGACG | -0.149
GCATTCTA | 0.0364
CACCCCCA | -0.206
CGAAAGGA | 0.0735
AAAGCACG | -0.11
AAAGCGAG | 0.102
AAGACCTG | -0.0984
CCAAACAC | 0.0344
GCGTGGGA | -0.201
AACCGCTG | -0.0376
AATACCAG | 0.0542
ACGTGTCC | -0.091
CTAGCTGA | -0.0217
AGTTATCC | 0.14

Sequence | PBM E-score
TGCGGGAA | 0.225
GAAATTGA | 0.16
GCTCAACC | -0.0442
AGTAAGAA | 0.15
AAGAGAAA | -0.0318
ACTGTGCG | -0.116
ATTGTGTG | -0.151
ACCTCCGA | 0.0892
CACCCCCG | -0.192
CCCACACG | -0.0454
AGGTTTTG | -0.0473
ACCGGTGA | 0.0385
GCCCTCCA | -0.378
ATCTACCC | -0.0264
CCATTACG | -0.224
ACAACTCT | 0.0367
ACAACTGA | 0.0349
AACACAAC | 0.206
AAAGCAAT | 0.166
